Two substances from PMC10184973 can be followed below.

Protein sequences, listed by entry. Tags and fused reporters are not part of them.
UniProt Q92556: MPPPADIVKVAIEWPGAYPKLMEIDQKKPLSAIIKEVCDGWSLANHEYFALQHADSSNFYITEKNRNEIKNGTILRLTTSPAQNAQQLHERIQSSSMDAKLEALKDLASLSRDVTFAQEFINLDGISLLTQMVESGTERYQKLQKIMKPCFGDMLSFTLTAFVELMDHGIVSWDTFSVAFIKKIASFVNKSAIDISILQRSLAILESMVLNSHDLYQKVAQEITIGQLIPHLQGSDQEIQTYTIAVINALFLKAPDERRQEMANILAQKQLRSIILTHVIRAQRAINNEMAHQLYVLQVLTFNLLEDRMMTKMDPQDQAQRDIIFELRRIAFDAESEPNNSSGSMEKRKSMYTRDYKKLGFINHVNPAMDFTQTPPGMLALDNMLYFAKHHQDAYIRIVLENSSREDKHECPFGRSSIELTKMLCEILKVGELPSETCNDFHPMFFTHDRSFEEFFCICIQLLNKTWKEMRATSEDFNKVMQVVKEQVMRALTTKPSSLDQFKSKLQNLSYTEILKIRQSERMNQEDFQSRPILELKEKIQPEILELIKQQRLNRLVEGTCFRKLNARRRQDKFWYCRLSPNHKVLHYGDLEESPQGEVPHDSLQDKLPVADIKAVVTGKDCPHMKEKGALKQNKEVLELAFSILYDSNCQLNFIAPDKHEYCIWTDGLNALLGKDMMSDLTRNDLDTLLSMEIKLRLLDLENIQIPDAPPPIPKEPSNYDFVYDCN
UniProt Q8IZD9: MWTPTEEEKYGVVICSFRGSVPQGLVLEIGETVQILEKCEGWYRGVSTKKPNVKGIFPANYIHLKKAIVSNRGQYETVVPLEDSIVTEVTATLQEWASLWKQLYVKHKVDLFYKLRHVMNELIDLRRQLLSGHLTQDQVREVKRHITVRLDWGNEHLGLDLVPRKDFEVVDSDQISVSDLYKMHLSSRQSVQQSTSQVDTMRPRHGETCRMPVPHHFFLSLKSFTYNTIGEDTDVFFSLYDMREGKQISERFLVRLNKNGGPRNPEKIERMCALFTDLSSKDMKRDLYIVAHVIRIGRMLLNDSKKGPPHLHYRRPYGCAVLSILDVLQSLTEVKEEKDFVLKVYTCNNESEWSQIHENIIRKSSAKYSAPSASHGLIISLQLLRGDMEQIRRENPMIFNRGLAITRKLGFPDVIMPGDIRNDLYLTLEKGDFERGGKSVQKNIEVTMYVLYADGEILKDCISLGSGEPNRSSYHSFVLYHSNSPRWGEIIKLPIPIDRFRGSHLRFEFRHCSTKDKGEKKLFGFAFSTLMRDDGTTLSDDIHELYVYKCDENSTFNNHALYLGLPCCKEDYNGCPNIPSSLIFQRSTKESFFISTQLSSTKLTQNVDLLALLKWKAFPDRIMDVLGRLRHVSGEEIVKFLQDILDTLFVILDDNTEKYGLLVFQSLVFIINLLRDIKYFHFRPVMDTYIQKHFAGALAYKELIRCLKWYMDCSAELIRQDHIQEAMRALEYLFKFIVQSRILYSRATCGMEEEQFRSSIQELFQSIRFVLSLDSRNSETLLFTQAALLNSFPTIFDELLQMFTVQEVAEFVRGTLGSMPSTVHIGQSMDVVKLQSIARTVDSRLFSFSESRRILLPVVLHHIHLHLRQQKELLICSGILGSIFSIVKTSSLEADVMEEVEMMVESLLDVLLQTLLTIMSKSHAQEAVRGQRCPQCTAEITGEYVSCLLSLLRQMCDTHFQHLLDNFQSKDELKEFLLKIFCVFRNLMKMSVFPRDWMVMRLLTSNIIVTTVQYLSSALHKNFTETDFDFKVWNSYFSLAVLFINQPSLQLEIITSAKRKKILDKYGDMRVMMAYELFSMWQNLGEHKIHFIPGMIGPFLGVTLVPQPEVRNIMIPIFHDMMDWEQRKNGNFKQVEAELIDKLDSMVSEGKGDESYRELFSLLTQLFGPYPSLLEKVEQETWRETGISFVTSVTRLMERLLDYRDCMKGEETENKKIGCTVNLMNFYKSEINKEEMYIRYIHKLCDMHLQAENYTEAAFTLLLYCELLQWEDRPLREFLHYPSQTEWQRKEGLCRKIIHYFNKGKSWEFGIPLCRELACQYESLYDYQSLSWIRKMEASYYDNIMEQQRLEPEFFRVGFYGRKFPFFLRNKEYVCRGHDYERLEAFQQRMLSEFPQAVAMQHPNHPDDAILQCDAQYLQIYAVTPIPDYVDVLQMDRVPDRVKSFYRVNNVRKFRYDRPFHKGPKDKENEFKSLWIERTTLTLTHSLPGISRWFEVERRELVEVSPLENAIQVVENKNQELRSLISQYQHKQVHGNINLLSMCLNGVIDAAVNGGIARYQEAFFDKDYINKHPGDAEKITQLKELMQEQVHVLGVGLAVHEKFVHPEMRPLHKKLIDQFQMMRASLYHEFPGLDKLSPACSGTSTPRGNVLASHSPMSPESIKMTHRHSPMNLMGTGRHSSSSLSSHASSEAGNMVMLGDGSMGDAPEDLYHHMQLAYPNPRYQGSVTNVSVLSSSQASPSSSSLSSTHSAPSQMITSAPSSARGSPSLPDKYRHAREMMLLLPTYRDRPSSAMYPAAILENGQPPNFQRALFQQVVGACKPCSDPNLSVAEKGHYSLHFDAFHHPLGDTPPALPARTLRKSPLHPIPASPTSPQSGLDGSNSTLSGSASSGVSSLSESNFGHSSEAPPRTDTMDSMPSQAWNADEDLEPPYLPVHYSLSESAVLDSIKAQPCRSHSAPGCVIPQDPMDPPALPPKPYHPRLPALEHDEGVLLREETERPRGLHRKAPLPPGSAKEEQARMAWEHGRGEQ

These are yes or no findings as the source states them, for the method shown. In cells and extracts the contact can be indirect. Some binding calls cover weakened binding; strength is not graded here.

One assay concerns the target myc-GST-hElmo (human) (UniProt Q92556). In words: pull-down; myc-GST-Elmo held on Glutathione Sepharose 4B, washed, then incubated with Cos7 lysate expressing myc-hDOCK3 in the presence or absence of DS72062539 (10 µM) for 10 min at 4 °C; immunoblot with anti-myc antibody; only the target purified.
Assay [1] addresses Elmo1 Halo Tag (Engulfment and cell motility protein 1 with Halo Tag fused at its C-terminus) (UniProt Q92556). In words: FRET or BRET; intermolecular NanoBRET in 293A cells co-transfected with Nano Luc DOCK3 and Elmo1 Halo Tag plasmids; 100 nM HaloTag NanoBRET 618 Ligand; 4 h with compounds at 37 °C, 5% CO2; donor emission at 460 nm and acceptor emission measured. For orientation: BRET reads energy transfer from a luciferase to a nearby fluorophore.

Consider “myc-tagged hDOCK3 (from UniProt Q8IZD9 1-2030)”, for which the binding entry with myc-GST-hElmo (human) is recorded as “binds”.

On to “Nano Luc DOCK3 (Dedicator of cytokinesis 3 with Nano Luc fused at its N-terminus) (from UniProt Q8IZD9 1-2030)”, for which the binding result in assay [1] is “binds”.
